# The exact form of at least one protein or probe is not confirmed. At least one verdict was read from the data and is not stated in words by the source.
# Columns and labels:
# [1] = system: human alpha-thrombin (human); test: sandwich electrochemical aptasensor (differential pulse ASV), detection strand; conditions: thrombin captured on Apt1-NH2, linear 1 fM-10 nM, LOD 0.9 fM (not a Kd); 50 mM Tris-HCl, 100 mM NaCl, 5 mM KCl, 1 mM MgCl2, 5 mM CaCl2, pH 7.4; BSA-blocked electrode; 37 C, 2 h per binding step; commercial protein; label: CdS quantum dot conjugate; folded or branched DNA
# [2] = system: human alpha-thrombin (human); test: sandwich electrochemical aptasensor (differential pulse ASV), capture strand; conditions: with Apt2-CdS as detection strand, linear 1 fM-10 nM, LOD 0.9 fM (not a Kd); 5'-NH2-(CH2)6; 50 mM Tris-HCl, 100 mM NaCl, 5 mM KCl, 1 mM MgCl2, 5 mM CaCl2, pH 7.4; BSA-blocked electrode; 37 C, 2 h per binding step; commercial protein; folded or branched DNA
Sequence,binding result [1],binding result [2]
TCTCTCTCTCTCTCTCTCTCAGTCCGTGGTAGGGCAGGTTGGGGTGACT [Aptamer-II (Apt2)],binds,
TTTTTTTTTTGGTTGGTGTGGTTGG [Aptamer-I (Apt1-NH2)],,binds

# Source: publication PMC5038621
